# In paper PMC8468827:
# Amino acid sequences for entries named in this document (tags omitted).
# UniProt Q9VQ93: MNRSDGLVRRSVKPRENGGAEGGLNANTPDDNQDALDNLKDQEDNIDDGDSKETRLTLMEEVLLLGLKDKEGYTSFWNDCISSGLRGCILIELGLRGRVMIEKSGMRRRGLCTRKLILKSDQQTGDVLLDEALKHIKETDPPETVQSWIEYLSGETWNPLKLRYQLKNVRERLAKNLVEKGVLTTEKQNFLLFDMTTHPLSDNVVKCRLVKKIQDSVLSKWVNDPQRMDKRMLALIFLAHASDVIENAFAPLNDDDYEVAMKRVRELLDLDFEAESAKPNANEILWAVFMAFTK
# Target: dGOLPH3-mRFP (Drosophila) (UniProt Q9VQ93)
# Test: affinity purification with mass spectrometry; RFP-trap beads on lysate of 3000 adult testes expressing dGOLPH3-RFP (RFP alone as control); lysis buffer 25 mM Tris-HCl pH 7.4, 150 mM NaCl, 1 mM EDTA, 1% NP-40; washes at 4 °C; nanoLC-MS/MS
row,binding,Binder
1,binds,"phosphatidylinositol 4-phosphatase Sac1 (protein, UniProt Q9W0I6 1-592) MDSREENAVYDDMNLYIAPQSFIIEPNGGDELLVIGRHDKVTRVQPASGGLVANLRPTRRICGVLGTIHLLSCDYLLVATHRLFVGVLNGAVVWRLAGYDIIPYIPNSFQRKENENYLRLLRQTLDTKFFYFSYRYDLTNSLQRQREVAQSRPEVSGLLQRAEQRFVWNGYVLRQFNCDKMEKFQLPLVLGFVSINQVQINGQTFFWSIITRRSVQRAGTRLFCRGSDEQGHVANFVETEQIVEFNGQLTGFVQTRGSMPFHWHQLPNLRYKPRPVLVPGKDHLAACGLHFKEQIRLYGNNVAVNLVDHKGAEGELEATYARLVREMGNPQVRYESFDFHSECRKMRWDRLNILIDRLAHEQDQFGVYHVFDDGKLVSTQTGVFRTNCIDCLDRTNVVQSMLARRSLTAVLQKLGVLHVGQKVEHASDIFESIFKGVWADNADLVSLQYSGTCALKTDFTRTGKRTKSGAMQDGKNSLMRYYLNNFADGQRQDSIDLFLGKYLVNDNEGGAVPSPLESKHGWRFFTFPSVLLVAVAMFMITMTYPAEFNTENLLFMLFWGAMIAVSATGILHYGVEFVQWPRLFPPISFRDP"
2,binds,"Protein phosphatase 2A at 29B (Pp2A-29B) (protein, UniProt P36179 1-591) MAASDKSVDDSLYPIAVLIDELKNEDVQLRLNSIKKLSTIALALGEERTRSELIPFLTETIYDEDEVLLALADQLGNFTSLVGGPEFAMYLIPPLESLATVEETVVRDKAVESLRTVAAEHSAQDLEIHVVPTLQRLVSGDWFTSRTSACGLFSVCYPRVTQPVKAELRANFRKLCQDETPMVRRAAANKLGEFAKVVETEYLKSDLIPNFVQLAQDDQDSVRLLAVEACVSIAQLLPQDDVEHLVLPTLRQCASDSSWRVRYMVAEKFVDLQKAVGPEITRVDLVPAFQYLLKDAEAEVRAAVATKVKDFCANLDKVNQVQIILSSILPYVRDLVSDPNPHVKSALASVIMGLSPMLGAYQTVEQLLPLFLIQLKDECPEVRLNIISNLDCVNDVIGIQQLSQSLLPAIVELAEDSKWRVRLAIIEYMPALAGQLGQEFFDQKLRGLCMGWLNDHVYAIREAATLNMKKLVEQFGAPWAEQAIIPMILVMSRNKNYLHRMTCLFCLNVLAEVCGTDITTKLLLPTVLLLAADPVANVRFNVAKTLQKISPFLEASVIDAQVKPTLDKLNTDTDVDVKHFAAQAIAGIAAA"
3,binds,"Pmm2 (protein, UniProt Q9VTZ6 1-254) MTTAALKRDEILLLFDVDGTLTMPRSVVTPEFEEFFYSRVKPRATIGIVGGSDLEKMFEQLNGRKILNEFDFIFPENGLVQIEGGKEVGKQNIIMHLGEETVKRFINFVLRYLSELDVPIKRGTFIEFRNGMMNVCPIGRQCTREERNMFAEYDIEHKVREKMIKDLKQEFADVDLTYSIGGQISFDVFPHGWDKTYCLRHIEAHYKFKEIHFFGDKTEPGGNDYEIYSDPRTISHRVYTPKDTQRILTEILEL"
4,binds,"Sphingosine-1-phosphate lyase Sply (protein, UniProt Q9V7Y2 1-545) MRPFSGSDCLKPVTEGINRAFGAKEPWQVATITATTVLGGVWLWTVICQDENLYIRGKRQFFKFAKKIPAVRRQVETELAKAKNDFETEIKKSNAHLTYSETLPEKGLSKEEILRLVDEHLKTGHYNWRDGRVSGAVYGYKPDLVELVTEVYGKASYTNPLHADLFPGVCKMEAEVVRMACNLFHGNSASCGTMTTGGTESIVMAMKAYRDFAREYKGITRPNIVVPKTVHAAFDKGGQYFNIHVRSVDVDPETYEVDIKKFKRAINRNTILLVGSAPNFPYGTIDDIEAIAALGVKYDIPVHVDACLGSFVVALVRNAGYKLRPFDFEVKGVTSISADTHKYGFAPKGSSVILYSDKKYKDHQFTVTTDWPGGVYGSPTVNGSRAGGIIAACWATMMSFGYDGYLEATKRIVDTARYIERGVRDIDGIFIFGKPATSVIALGSNVFDIFRLSDSLCKLGWNLNALQFPSGIHLCVTDMHTQPGVADKFIADVRSCTAEIMKDPGQPVVGKMALYGMAQSIPDRSVIGEVTRLFLHSMYYTPSQK"
5,binds,"very-long-chain enoyl-CoA reductase Sc2 (protein, UniProt Q9VZL3 1-302) MELEILNAKNSKPYGKVKVPSGATPIGDLRALIHKTLKQTPHANRQSLRLELKGKSLKDTDTLESLSLRSGDKIYVKDLGPQIGWKTVFLAEYAGPLIVYLIFYFRPELVYGKAASLPISLTTHIAAGCYTVHYVKRLLETIFVHRFSHATMPLRNLFKNCTYYWGFTAYVSYHVNHPQFTSPCMCTVWGALGAFALCELGNFSVHIALRNLRPPGTKVRKIPVADGNPLTKLFDLVSCPNYTYEIGAWVSFSVLTSCLAAYLFAFAGAFQMTIWALAKHRNYKKEFKDYPRQRRSIFPFVL"
6,binds,"Small wing (Sl) (protein, UniProt Q9VXH3 1-1236) MSCFSAMSAPLLGEMEQTIGMLERGTIVTKLYGKQRRPDRRHLMLIRETRQLLWATVATQTPRTDYEGAIQLREIREIRVGKHSKEFRLFADDCQRFESSKCFVILHGNHFKLKSFSVVALSEIEADNWVRGLRYMVKDTLGAPYPLQIDRWLRREYYQIENVNTHSAKATEQSPAQVTIKDFKLFLAGVSCKMTTGKFMEHFTEDVRRKHDLKFDDFSRLYQKLLLPNGFASVLSGSGVANFPYSEDQQVVRPAELKQFLETEQRDVSASEISSAAIASFIRDFVQDVERDVQEPYLTFPEFVDFLFSKQNDLWNSKYDQVFMDMNLPLSSYWIASSHNTYLTGDQFSSESSCEAYARALRMGCRCIELDCWNGPDNLPYIFHGHTITSKIKFMDVIKTIKDHAFTSSEYPVILSIEQNCSLEQQRNMAQALIEVFGDMLLTQPCDRNEQHLPSPYQLRRKIILKHKKLPQFDDIANGISSTGSLGHRSSLGGAGGGAHGENDGENVRKVFKEGLLYFKDPVDKSWNLYQFVLTHQELIYSSEINESRNGNSEDDDFGLSSSCSLNSNMQQKQKDTSANDELHFGENWFHGKLEGGRKEADDLLKKYKHFGDGTFLVRESATFVGDYSLSFWRRNRPNHCRIKLKHENGSIKYYLVENFVFDSLYSLIVYYRKNMLRSSEFSIILKEPVPQPKKHEDQEWFHPNTTKEQAEQGLYRLEIGSFLVRPSVQSINAFVISFTINRKIKHCRIMQEGRLYGIDTMNFESLVSLINYYTRNPLYRNVKLSHPVSQELLRQALAEAAQGDHSGGHDDNGASNYMGSNLEENVTCKALYSYKANKPDELSFPKHAIITNVQRDNSMWWIGDYGGMIKKHLPANYVKVIDSTTEDYNSLNEEGTDGRTDSIEIFGAVASLFESNDPGIIFKLQIQTPTMQNPFVIGFDNQETAYEWIKAIQEAALIASQLASERRKKERTARVAKEMSDLIIYFRSVPFREHSWIFQEMSSFPETKAEKQFFQQNTQLFLSYHRNQISRVYPKGQRLDSSNFNPMPFWNVGSQMIALNYQTGDKAMQLNQAKFRNNGQCGYILKPSFMKSDSFNPNNPLCDGLSEVKVSIRLIAARHLFRGGKSNNPQIVVELIGASFDTGVKYRTKVNENGFNPVWNESCEFNVRNPQFAILRFEVQDEDMFAETHFIAQACYPLTCIRQGYRSVILRNKFSEELELSSLLINIKIANVTAP"

# Further lines, the binder ahead of its results:
row,Binder,binding
1,"Pgant7 (protein, UniProt Q8MV48 1-591) MRVSTIRSGRICRLALCLLVLLPLLYLLANWSDHHKRVQEAYHTRFGGPKFAHQRLEGRPREVPKLVDGLGNFEPKDVKPRSGPGENGEAHSLSPDKKHMSDASEMEYGMNIACSDEISMHRSVRDTRLEECRHWDYPFDLPRTSVIIVFHNEGFSVLMRTVHSVIDRSPTHMLHEIILVDDFSDKENLRSQLDEYVLQFKGLVKVIRNKEREGLIRTRSRGAMEATGEVIVFLDAHCEVNTNWLPPLLAPIYRDRTVMTVPIIDGIDHKNFEYRPVYGTDNHFRGIFEWGMLYKENEVPRREQRRRAHNSEPYRSPTHAGGLFAINREYFLELGAYDPGLLVWGGENFELSFKIWQCGGSIEWVPCSRVGHVYRGFMPYNFGKLASKKKGPLITINYKRVIETWFDDTHKEYFYTREPLARYLDMGDISEQLALKKRLNCKSFQWFMDHIAYDVYDKFPGLPANLHWGELRSVASDGCLDSMGHQPPAIMGLTYCHGGGNNQLVRLNAAGQLGVGERCVEADRQGIKLAVCRLGTVDGPWQYNEHTKHLMHRVHKKCMALHPATQQLSLGHCDVNDSYQQWWFKEIRPRW",binds
2,"Bond (protein, UniProt Q9VCY7 1-322) MTNYIKIVEERISGLSKGVDETVDSWFLMSSPMPVVAVVLVYLAFVLKIGPEYMKNRKPMDLKRIMVFYNAFQVLYSIWMCRTSIQESNVMASIFSKKCEINRTREQNLTLYSGAWFYFFSKIIDLLDTTFFVLRKKDNQVSFLHVYHHTITVLFSWGYLKYAPGEQGVIIGILNSGVHIIMYFYYMVAAMGPQYQKYLWWKKYMTSIQLIQFVLILGYMLTVGAKGCNMPKTLTFFFVGNTVIFLYLFGNFYRKTYKKAKSVDGGSRTTGSSLAQSALRAAGGMGCMPQTMNAGKHLLQNGQVGKAYIDLNNNSVKPMKLE",binds
3,"Alphabet (protein, UniProt Q9VAK1 1-368) MGGFLDKPKTAKHNDEGEGNKLLFGVSSMQGWRSEMEDAYYARAGLGDALPDWSFFAVFDGHAGCKVSEHCAKHLLESIISTEEFIGGDHVKGIRTGFLRIDEVMRELPEFTRESEKCGGTTAVCAFVGLTQVYIANCGDSRAVLCRQGVPVFATQDHKPILPEEKERIYNAGGSVMIKRVNGTLAVSRALGDYDFKNVKEKGQCEQLVSPEPEIFCQSRQDSDEFLVLACDGIWDVMSNEDVCSFIHSRMRVTSNLVSIANQVVDTCLHKGSRDNMSIIIIAFPGAPKPTEEAIEAEHRLEKQIEKITRDEIESSKITDYVDLLKCLQNRDDIEGLPPGGGLQSKYHVIERTFKQEFPDRPCESPTH",binds
4,"CG8230 (protein, UniProt Q7KNA0 1-699) MGINVSRTADLGSNQWLQRFVGRQHIAHDDEAFWNGLLNYNIVLPENSQDQLNLDSRLEALCQSFIGNNLKTGNFGSLVTVFLEKTSELLSLSDQESNMHVWQTFNALFIIRSLVKYINETGSEFQLLQHFEAMPNAELLQAALEQQQQTPAESATIAMEATEQSAAAAVPVIVDGSKFETFIDALVNLIVVIPVKEFTYHLHLEAVNMLITLLSVHLFAQQPTDKSIVFRTVFKCQHANVLMSALLHFVARIVEVPHTMFGSSSAGSFVFGIAESLLSIFTFRKQPDILKAGQAAGGGELSQRFRTHYPLANQSLLLILILTNHCTAQDNAYRTSLFSCADSKDSPKQGAVSFQIDFSAVYETLCTIVTIDQATLLLYLLLHRNERFYRFVMQQQDLEQLVIPILQTLYNAPDSNSHHIYMSLIVLLILSEDEGFNKNVHTIMLKNITWYTERTISEISLGGILILIVIRTIQYNMLKMRDKYLHTNCLAALANMSGHFRALHPYVAQRLVSLFETLARKHTRLDAQLKEPADSAVFVNVSTTPEDMLQDLSVLEEVLRMVLEILNSCLTNQLVYCPNLVYTLLYKRSVFEGFRSHHAFQDVIQNIDMVVGFFSSRLQRVQEQRGELGVNEVLEVISKGASQWSSDRLRKFPDLKFKYVEEDAPEEFFIPYVWTLVCKYGCVHFSSESIKSVTTDIAC",binds

# No constants are given. Whether binding was seen depends on the method and setting. In cells and extracts the contact can be indirect. These calls come from enrichment with a bait or labelling near it, and not all partners need be listed.
